Measured values taken from PMC10279700, “Structural insights into regulation of the PEAK3 pseudokinase scaffold by 14-3-3” (Nature Communications, 2023).
Results are given in words; binding and its absence hold for the method and conditions named. Binding seen in cells or lysates may run through a third protein. A yes stands for co-enrichment or nearness to the bait. Other partners may have been found. For part of these data: No binding means not detected with the bait. For part of these data: Sequences can lack the tags named with a protein. Blank lines part the entries; values can stand above or below the molecule they belong to.

Sequences of proteins named here, by UniProt entry; tags and fusion partners are left off.
UniProt P63104: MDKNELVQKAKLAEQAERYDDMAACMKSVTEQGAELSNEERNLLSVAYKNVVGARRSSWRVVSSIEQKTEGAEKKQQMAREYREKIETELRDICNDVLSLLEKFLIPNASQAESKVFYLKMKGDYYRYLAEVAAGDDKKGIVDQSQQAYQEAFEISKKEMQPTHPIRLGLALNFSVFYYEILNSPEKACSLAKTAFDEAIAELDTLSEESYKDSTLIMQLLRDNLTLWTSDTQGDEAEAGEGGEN
UniProt P46109: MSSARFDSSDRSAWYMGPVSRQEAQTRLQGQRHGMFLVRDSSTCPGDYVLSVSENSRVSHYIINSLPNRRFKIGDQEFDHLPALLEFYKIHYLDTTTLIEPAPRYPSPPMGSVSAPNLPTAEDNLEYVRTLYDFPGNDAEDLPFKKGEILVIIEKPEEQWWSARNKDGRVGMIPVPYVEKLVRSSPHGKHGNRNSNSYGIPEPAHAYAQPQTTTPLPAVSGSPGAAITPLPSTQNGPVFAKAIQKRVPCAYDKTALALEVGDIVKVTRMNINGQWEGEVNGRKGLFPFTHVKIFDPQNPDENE
UniProt P30153: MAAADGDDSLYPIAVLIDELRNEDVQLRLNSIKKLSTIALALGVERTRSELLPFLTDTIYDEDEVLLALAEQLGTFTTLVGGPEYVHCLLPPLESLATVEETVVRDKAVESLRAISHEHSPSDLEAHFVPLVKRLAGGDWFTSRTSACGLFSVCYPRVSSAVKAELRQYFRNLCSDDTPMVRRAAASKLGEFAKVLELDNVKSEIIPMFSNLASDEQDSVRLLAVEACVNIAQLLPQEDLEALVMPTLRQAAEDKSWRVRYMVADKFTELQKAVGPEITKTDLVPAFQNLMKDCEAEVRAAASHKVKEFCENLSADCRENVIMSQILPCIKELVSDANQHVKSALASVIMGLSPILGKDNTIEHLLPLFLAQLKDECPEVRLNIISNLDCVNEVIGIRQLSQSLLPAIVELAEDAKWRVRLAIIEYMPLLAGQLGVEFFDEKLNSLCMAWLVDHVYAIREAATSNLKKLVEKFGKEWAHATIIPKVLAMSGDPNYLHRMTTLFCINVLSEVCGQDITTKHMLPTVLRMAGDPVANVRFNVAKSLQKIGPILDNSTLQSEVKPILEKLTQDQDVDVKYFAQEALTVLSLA
UniProt P63151: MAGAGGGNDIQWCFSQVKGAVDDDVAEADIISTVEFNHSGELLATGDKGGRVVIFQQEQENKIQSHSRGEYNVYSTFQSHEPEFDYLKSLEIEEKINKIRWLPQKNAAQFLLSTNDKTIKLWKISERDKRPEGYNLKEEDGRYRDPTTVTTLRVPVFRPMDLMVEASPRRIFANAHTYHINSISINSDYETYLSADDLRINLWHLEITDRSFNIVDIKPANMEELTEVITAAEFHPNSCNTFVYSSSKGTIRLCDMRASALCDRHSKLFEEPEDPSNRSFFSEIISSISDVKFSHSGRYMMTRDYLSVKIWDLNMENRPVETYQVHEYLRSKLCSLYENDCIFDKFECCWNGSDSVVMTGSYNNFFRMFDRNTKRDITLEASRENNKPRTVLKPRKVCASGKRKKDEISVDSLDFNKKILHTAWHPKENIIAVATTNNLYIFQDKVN

Experiments:
[1] = biological target: T1, FLAG-tagged PEAK3 S69A (human) (UniProt Q6ZS72); test: affinity purification with mass spectrometry; WT or S69A PEAK3-3xFLAG transiently expressed in HEK293; anti-FLAG M2 magnetic beads, 3 h at 4 °C, 3xFLAG peptide elution; SAINTexpress BFDR < 0.05 against non-transfected cells
T1 sequence: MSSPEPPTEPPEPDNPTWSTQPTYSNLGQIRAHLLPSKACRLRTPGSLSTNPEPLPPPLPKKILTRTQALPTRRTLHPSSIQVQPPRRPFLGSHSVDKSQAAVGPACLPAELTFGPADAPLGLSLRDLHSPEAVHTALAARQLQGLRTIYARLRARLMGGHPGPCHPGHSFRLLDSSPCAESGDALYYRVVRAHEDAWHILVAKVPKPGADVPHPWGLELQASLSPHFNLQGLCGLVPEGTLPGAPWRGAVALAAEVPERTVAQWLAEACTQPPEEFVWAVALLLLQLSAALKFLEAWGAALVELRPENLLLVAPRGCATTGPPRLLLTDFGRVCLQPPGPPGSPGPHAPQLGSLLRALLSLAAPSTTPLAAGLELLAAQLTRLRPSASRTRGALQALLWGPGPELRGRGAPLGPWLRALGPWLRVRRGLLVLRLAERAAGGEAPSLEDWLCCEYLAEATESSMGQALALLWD

[2] = biological target: FLAG-tagged WT PEAK3 (human) (UniProt Q6ZS72); test: as above
[3] = biological target: FLAG-tagged full-length human PEAK3 (PEAK3-1xFLAG) (human) (UniProt Q6ZS72); test: affinity purification with mass spectrometry; PEAK3-1xFLAG purified from Expi293F on Flag resin and Superdex 200; 5 ug of the purified complex digested with trypsin and analysed by MS

Molecule: 14-3-3ζ (from UniProt P63104 1-245)
binding [3]: binds

B1: 14-3-3η (protein, UniProt Q04917 1-246)
chain: MGDREQLLQRARLAEQAERYDDMASAMKAVTELNEPLSNEDRNLLSVAYKNVVGARRSSWRVISSIEQKTMADGNEKKLEKVKAYREKIEKELETVCNDVLSLLDKFLIKNCNDFQYESKVFYLKMKGDYYRYLAEVASGEKKNSVVEASEAAYKEAFEISKEQMQPTHPIRLGLALNFSVFYYEIQNAPEQACLLAKQAFDDAIAELDTLNEDSYKDSTLIMQLLRDNLTLWTSDQQDEEAGEGN
binding [3]: binds

B2: 14-3-3γ (protein, UniProt P61981 1-247)
chain: MVDREQLVQKARLAEQAERYDDMAAAMKNVTELNEPLSNEERNLLSVAYKNVVGARRSSWRVISSIEQKTSADGNEKKIEMVRAYREKIEKELEAVCQDVLSLLDNYLIKNCSETQYESKVFYLKMKGDYYRYLAEVATGEKRATVVESSEKAYSEAHEISKEHMQPTHPIRLGLALNYSVFYYEIQNAPEQACHLAKTAFDDAIAELDTLNEDSYKDSTLIMQLLRDNLTLWTSDQQDDDGGEGNN
binding [3]: binds

B3: 14-3-3θ (protein, UniProt P27348 1-245)
chain: MEKTELIQKAKLAEQAERYDDMATCMKAVTEQGAELSNEERNLLSVAYKNVVGGRRSAWRVISSIEQKTDTSDKKLQLIKDYREKVESELRSICTTVLELLDKYLIANATNPESKVFYLKMKGDYFRYLAEVACGDDRKQTIDNSQGAYQEAFDISKKEMQPTHPIRLGLALNFSVFYYEILNNPELACTLAKTAFDEAIAELDTLNEDSYKDSTLIMQLLRDNLTLWTSDSAGEECDAAEGAEN
binding [3]: binds

Other lines, results leading:

binding [1]: binds
Molecule: CrkL (from UniProt P46109 1-303)

binding [2]: no binding
binding [1]: binds
Molecule: PPP2R1A (from UniProt P30153 1-589)

binding [2]: no binding
binding [1]: binds
Molecule: PPP2R2A (from UniProt P63151 1-447)

binding [1]: binds
B4: protein kinase D1 (PKD1) (enzyme, UniProt Q15139 1-912)
chain: MSAPPVLRPPSPLLPVAAAAAAAAAALVPGSGPGPAPFLAPVAAPVGGISFHLQIGLSREPVLLLQDSSGDYSLAHVREMACSIVDQKFPECGFYGMYDKILLFRHDPTSENILQLVKAASDIQEGDLIEVVLSASATFEDFQIRPHALFVHSYRAPAFCDHCGEMLWGLVRQGLKCEGCGLNYHKRCAFKIPNNCSGVRRRRLSNVSLTGVSTIRTSSAELSTSAPDEPLLQKSPSESFIGREKRSNSQSYIGRPIHLDKILMSKVKVPHTFVIHSYTRPTVCQYCKKLLKGLFRQGLQCKDCRFNCHKRCAPKVPNNCLGEVTINGDLLSPGAESDVVMEEGSDDNDSERNSGLMDDMEEAMVQDAEMAMAECQNDSGEMQDPDPDHEDANRTISPSTSNNIPLMRVVQSVKHTKRKSSTVMKEGWMVHYTSKDTLRKRHYWRLDSKCITLFQNDTGSRYYKEIPLSEILSLEPVKTSALIPNGANPHCFEITTANVVYYVGENVVNPSSPSPNNSVLTSGVGADVARMWEIAIQHALMPVIPKGSSVGTGTNLHRDISVSISVSNCQIQENVDISTVYQIFPDEVLGSGQFGIVYGGKHRKTGRDVAIKIIDKLRFPTKQESQLRNEVAILQNLHHPGVVNLECMFETPERVFVVMEKLHGDMLEMILSSEKGRLPEHITKFLITQILVALRHLHFKNIVHCDLKPENVLLASADPFPQVKLCDFGFARIIGEKSFRRSVVGTPAYLAPEVLRNKGYNRSLDMWSVGVIIYVSLSGTFPFNEDEDIHDQIQNAAFMYPPNPWKEISHEAIDLINNLLQVKMRKRYSVDKTLSHPWLQDYQTWLDLRELECKIGERYITHESDDLRWEKYAGEQGLQYPTHLINPSASHSDTPETEETEMKALGERVSIL

binding [1]: binds
B5: protein kinase D2 (PKD2) (enzyme, UniProt Q9BZL6 1-878)
chain: MATAPSYPAGLPGSPGPGSPPPPGGLELQSPPPLLPQIPAPGSGVSFHIQIGLTREFVLLPAASELAHVKQLACSIVDQKFPECGFYGLYDKILLFKHDPTSANLLQLVRSSGDIQEGDLVEVVLSASATFEDFQIRPHALTVHSYRAPAFCDHCGEMLFGLVRQGLKCDGCGLNYHKRCAFSIPNNCSGARKRRLSSTSLASGHSVRLGTSESLPCTAEELSRSTTELLPRRPPSSSSSSSASSYTGRPIELDKMLLSKVKVPHTFLIHSYTRPTVCQACKKLLKGLFRQGLQCKDCKFNCHKRCATRVPNDCLGEALINGDVPMEEATDFSEADKSALMDESEDSGVIPGSHSENALHASEEEEGEGGKAQSSLGYIPLMRVVQSVRHTTRKSSTTLREGWVVHYSNKDTLRKRHYWRLDCKCITLFQNNTTNRYYKEIPLSEILTVESAQNFSLVPPGTNPHCFEIVTANATYFVGEMPGGTPGGPSGQGAEAARGWETAIRQALMPVILQDAPSAPGHAPHRQASLSISVSNSQIQENVDIATVYQIFPDEVLGSGQFGVVYGGKHRKTGRDVAVKVIDKLRFPTKQESQLRNEVAILQSLRHPGIVNLECMFETPEKVFVVMEKLHGDMLEMILSSEKGRLPERLTKFLITQILVALRHLHFKNIVHCDLKPENVLLASADPFPQVKLCDFGFARIIGEKSFRRSVVGTPAYLAPEVLLNQGYNRSLDMWSVGVIMYVSLSGTFPFNEDEDINDQIQNAAFMYPASPWSHISAGAIDLINNLLQVKMRKRYSVDKSLSHPWLQEYQTWLDLRELEGKMGERYITHESDDARWEQFAAEHPLPGSGLPTDRDLGGACPPQDHDMQGLAERISVL

binding [1]: binds
B6: protein kinase D3 (PKD3) (enzyme, UniProt O94806 1-890)
chain: MSANNSPPSAQKSVLPTAIPAVLPAASPCSSPKTGLSARLSNGSFSAPSLTNSRGSVHTVSFLLQIGLTRESVTIEAQELSLSAVKDLVCSIVYQKFPECGFFGMYDKILLFRHDMNSENILQLITSADEIHEGDLVEVVLSALATVEDFQIRPHTLYVHSYKAPTFCDYCGEMLWGLVRQGLKCEGCGLNYHKRCAFKIPNNCSGVRKRRLSNVSLPGPGLSVPRPLQPEYVALPSEESHVHQEPSKRIPSWSGRPIWMEKMVMCRVKVPHTFAVHSYTRPTICQYCKRLLKGLFRQGMQCKDCKFNCHKRCASKVPRDCLGEVTFNGEPSSLGTDTDIPMDIDNNDINSDSSRGLDDTEEPSPPEDKMFFLDPSDLDVERDEEAVKTISPSTSNNIPLMRVVQSIKHTKRKSSTMVKEGWMVHYTSRDNLRKRHYWRLDSKCLTLFQNESGSKYYKEIPLSEILRISSPRDFTNISQGSNPHCFEIITDTMVYFVGENNGDSSHNPVLAATGVGLDVAQSWEKAIRQALMPVTPQASVCTSPGQGKDHKDLSTSISVSNCQIQENVDISTVYQIFADEVLGSGQFGIVYGGKHRKTGRDVAIKVIDKMRFPTKQESQLRNEVAILQNLHHPGIVNLECMFETPERVFVVMEKLHGDMLEMILSSEKSRLPERITKFMVTQILVALRNLHFKNIVHCDLKPENVLLASAEPFPQVKLCDFGFARIIGEKSFRRSVVGTPAYLAPEVLRSKGYNRSLDMWSVGVIIYVSLSGTFPFNEDEDINDQIQNAAFMYPPNPWREISGEAIDLINNLLQVKMRKRYSVDKSLSHPWLQDYQTWLDLREFETRIGERYITHESDDARWEIHAYTHNLVYPKHFIMAPNPDDMEEDP
